In PubChem BioAssay AID493014 (National Center for Advancing Translational Sciences (NCATS), 2011):
Some of the results follow. Shown are side measurements of this screen, not its main read-out; they come without a call. Compounds called inactive in the main read-out are mostly missing here. Potencies come from curve fits of mixed quality, noted in brackets.

Assay: qHTS Assay to Find Inhibitors of Chronic Active B-Cell Receptor Signaling
Settings: ABC-DLBCL IkBa-CBG/CBR reporter, luminescence ratio (green luciferase fused to IkBa over red control in TMD8 lymphoma cells), 4 h
Summary of the method: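 Doxycycline induced both beetle luciferases in TMD8 lymphoma cells; IKK-driven degradation limits the IkappaBalpha-fused green signal, while red luminescence normalises for cell number and nonspecific effects. Compounds tested up to 46 uM, 4 hrs.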

[1] = measured here: CBR red luminescence, cell number
[2] = measured here: IkBa-CBG green luminescence

SMILES: COc1ccc(F)cc1S(=O)(=O)N1CCCC(C)C1 (stereo not given)
- AC50 [1]: 0.184 µM [falling, full curve]

SMILES: COCCOC(=O)C1=C(N)OC2=C(C(=O)CC(C)(C)C2)C1c1cccnc1 (stereo not given)
- AC50 [1]: 3.26 µM [rising, single point]

SMILES: CCOC(=O)C1=C(C)NC(=S)N(C(C)=O)C1c1ccccc1 (stereo not given)
- AC50 [1]: 20.6 µM [falling, single point]
- AC50 [2]: 20.6 µM [rising, partial curve, poor fit]

SMILES: CC(=O)c1cccc(NC(=O)c2csc3c2CCCCC3)c1
- AC50 [1]: 17.8 µM [rising, partial curve, poor fit]

SMILES: CCOC(=O)Cc1c(C)nc2c(C#N)c(C)nn2c1C
- AC50 [1]: 29.1 µM [falling, single point]

SMILES: Cc1cccc(C(=O)Nc2ccc3c(c2)nc(C)n3C)c1
- AC50 [1]: 17.8 µM [falling, partial curve]

SMILES: CC(CC(=O)Nc1ccccc1C(F)(F)F)c1ccccc1 (stereo not given)
- AC50 [1]: 16.4 µM [rising, single point]

SMILES: COc1cccc(/C=N/Nc2nnc(C)n2N)c1OCc1ccccc1Cl
- AC50 [1]: 29.1 µM [falling, single point]

SMILES: CCCCN(Cc1ccco1)C(=O)C1CCCN(c2ncnc3c2nc2n3CCCCC2)C1 (stereo not given)
- AC50 [1]: 14.1 µM [falling, single point]

SMILES: CCc1c(C(=O)NNC(=S)Nc2ccc(S(=O)(=O)Nc3ncccn3)cc2)csc1C
- AC50 [1]: 12.6 µM [falling, partial curve]

SMILES: CCc1cc[n+](C2=C([O-])c3ccccc3C(=O)/C2=N\S(=O)(=O)c2cccs2)cc1
- AC50 [1]: 16.4 µM [falling, partial curve, poor fit]

SMILES: COc1cc2c(cc1OC)C(c1cccc(C)c1)CC(=O)N2 (stereo not given)
- AC50 [1]: 3.16 µM [rising, partial curve]

SMILES: Nc1nccnc1C(=O)OCC(=O)Nc1cccc(S(=O)(=O)N2CCCCC2)c1
- AC50 [1]: 16.4 µM [falling, single point]

SMILES: COc1ccccc1NC(=O)C(=O)N/N=C(\C)CC(=O)Nc1ccccc1C(F)(F)F
- AC50 [1]: 2.24 µM [falling, full curve]

SMILES: COc1ccc(C2=NS(=O)(=O)N(C)C(C(=O)Nc3ccc4c(c3)OCO4)=C2)cc1OC
- AC50 [1]: 11.2 µM [falling, partial curve, poor fit]

SMILES: O=C(NC(=S)NNC(=O)c1ccccc1O)c1ccccc1
- AC50 [1]: 10 µM [falling, partial curve]

SMILES: O=C1N(c2ccccc2)CCN1c1ccccc1
- AC50 [1]: 0.0891 µM [rising, full curve, poor fit]

SMILES: O=C(/C=C/c1ccccc1)NCCSCc1ccc(Cl)cc1
- AC50 [1]: 29.1 µM [rising, single point]

SMILES: Cc1cc(CNC(=O)c2ccc3c(c2)OCO3)c2ccccc2n1
- AC50 [1]: 35.5 µM [rising, single point]
- AC50 [2]: 25.1 µM [falling, single point]

SMILES: CC(Sc1nnc(-c2cccs2)n1Cc1ccccc1)C(=O)NCc1ccc2c(c1)OCO2 (stereo not given)
- AC50 [1]: 0.517 µM [falling, full curve, poor fit]

SMILES: O=C(c1ccco1)N1CCN(CC2CC3C=CC2C3)CC1 (stereo not given)
- AC50 [1]: 20.6 µM [rising, single point]

SMILES: C/C(Cl)=C\Cn1c(O)c(N=O)c2ccccc21
- AC50 [1]: 1.78 µM [rising, full curve]

SMILES: CN(C)CCOC(=O)c1ccc2[nH]c3c(c2c1)CSCC3
- AC50 [1]: 6.31 µM [rising, single point]

SMILES: N#Cc1nc(COc2ccccc2F)oc1NCc1ccc(F)cc1
- AC50 [1]: 2.51 µM [rising, partial curve, poor fit]

SMILES: CN(C)CCCN(C(=O)c1sc2ccccc2c1Cl)c1nc2c(F)cccc2s1
- AC50 [1]: 4.61 µM [falling, single point]

SMILES: N#CC(C#N)=Cc1cc2ccccc2nc1N1CCCCC1
- AC50 [1]: 16.4 µM [falling, single point]

SMILES: Cc1ccccc1CCN1CCCC(CN(C)CC(C)(C)C)C1 (stereo not given)
- AC50 [1]: 10 µM [rising, partial curve]

SMILES: COc1ccc(C(=O)Oc2ccc(F)cc2C(=O)/C=C/c2ccc(OC)c(OC)c2)cc1
- AC50 [1]: 14.6 µM [rising, partial curve, poor fit]

SMILES: CC(=O)Nc1cccc(-c2nnc(-c3ccccc3)o2)c1
- AC50 [1]: 7.31 µM [falling, partial curve]

SMILES: Cc1cc(C)nc(Nc2n[nH]c(-c3ccc(N)cc3)n2)n1
- AC50 [1]: 10.3 µM [falling, partial curve, poor fit]

SMILES: CCn1c(SCC(=O)N2CCOCC2)nnc1C(C)NC(=O)c1ccccc1 (stereo not given)
- AC50 [1]: 0.708 µM [rising, partial curve, poor fit]

SMILES: CCn1c(C)c(C)c2cc(C(=O)NC3CCCCCC3)ccc21
- AC50 [1]: 0.316 µM [falling, full curve, poor fit]

SMILES: CCCC(=O)N1CC(=O)Nc2ccc(C)cc2C1c1ccccc1 (stereo not given)
- AC50 [1]: 2.24 µM [rising, full curve, poor fit]

SMILES: O=C(Nc1sc2c(c1C(=O)O)CCC2)c1ccccc1F
- AC50 [1]: 0.562 µM [falling, full curve]

SMILES: CCn1cc(C(=O)N2CCCC(CO)(Cc3ccccc3C)C2)cn1 (stereo not given)
- AC50 [1]: 0.562 µM [rising, full curve, poor fit]

SMILES: COC(=O)c1ccc(CNC(=O)CCc2c[nH]c3ccccc23)cc1
- AC50 [1]: 35.5 µM [falling, single point]

SMILES: CC(=O)c1c(C)[nH]c(C(=O)CSc2nc3ccccc3n2C)c1C
- AC50 [1]: 7.08 µM [falling, partial curve]

SMILES: N#CC1=C(N)NC(SCc2ccccc2)=C(C#N)C12CCCCC2
- AC50 [1]: 0.2 µM [falling, full curve, poor fit]
- AC50 [2]: 35.5 µM [falling, single point]

SMILES: Cc1ccc(-c2nc3scc(CCNS(=O)(=O)c4c(C)noc4C)n3n2)cc1
- AC50 [1]: 35.5 µM [falling, single point]
- AC50 [2]: 15.8 µM [rising, partial curve, poor fit]

SMILES: Cc1cc(C)c(C#N)c(SCc2c(F)cccc2[N+](=O)[O-])n1
- AC50 [1]: 5.17 µM [rising, full curve, poor fit]
- AC50 [2]: 10.3 µM [falling, partial curve, poor fit]
